Results on nine compounds are retold here after the supplement of paper PMC10727501.

The other results are listed elsewhere or left out. This data set is noisy: repeats of one test often differ as much as different tests do.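 Researchers measured free-swimming zebrafish larvae's O-bend response probability to dark flashes (naive: first five; training: remaining flashes of four 60-flash blocks; test: later 60-flash block) and OMR turning toward alternating leftward/rightward LED motion. Six treated larvae were compared to sixty 0.1% DMSO controls, with |SSMD|≥2 marking a hit.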

Holding throughout (settings): 10 µM; pre-incubation: 30-90 min
The subject of test [1] is Danio rerio larvae (5 dpf, TLF). Put plainly: OMR-Perf (SSMD vs DMSO vehicle); higher = higher than vehicle (e.g. higher dark-flash O-bend response probability, or better optomotor performance).
Test [2] shares this test system. Put plainly: Prob-Test (SSMD vs DMSO vehicle); higher = higher than vehicle (e.g. higher dark-flash O-bend response probability, or better optomotor performance).
Test [3] shares this test system. As to the kind of experiment: Prob-Naive (SSMD vs DMSO vehicle); higher = higher than vehicle (e.g. higher dark-flash O-bend response probability, or better optomotor performance).
Test [4] has the same test system. Put plainly: Prob-Train (SSMD vs DMSO vehicle); higher = higher than vehicle (e.g. higher dark-flash O-bend response probability, or better optomotor performance).

`C=CC(=O)Nc1cccc(Nc2nc(Nc3ccc(Oc4ccnc(C(=O)NC)c4)cc3)ncc2F)c1` yielded an OMR-Perf in test [1] of 0.356. This compound also showed a Prob-Test in test [2] of -0.609. This compound registered a Prob-Naive in test [3] of -0.661. The compound further yielded a Prob-Train in test [4] of -0.656.
The matching figures for `CCc1cc(Nc2nccc(-c3c(-c4ccc(OC)c(C(=O)Nc5c(F)cccc5F)c4)nc4ccccn34)n2)c(OC)cc1N1CCC(N2CCN(S(C)(=O)=O)CC2)CC1`: 0.424, 0.0955, 0.35 and 0.169.
Compound `CN1C(C(=O)Nc2ccccn2)=C(O)c2ccccc2S1(=O)=O` [Piroxicam] gave an OMR-Perf in test [1] of -0.665. Further, the Prob-Test in test [2] is -0.904. In test [3], the Prob-Naive was -0.316. In test [4], this compound had a Prob-Train of -1.22.
The matching figures for `Cl.Nc1ccn([C@@H]2O[C@@H](CO)[C@@H](O)C2(F)F)c(=O)n1` [Gemcitabine HCl (Gemzar)]: -0.41, 0.237, 0.124 and -0.233.
The matching figures for `Cc1ccc(CNc2ncnc3ccc(-c4ccc(CO)o4)cc23)o1`: -0.0831, 0.162, -0.102 and -0.127.
The matching figures for `[C@@H]1(C[C@@]2(N([C@@](C1)(CC2)[H])C)[H])OC(C(C3C=CC=CC=3)O)=O.Br` (stereo partly specified) [Homatropine Bromide]: -0.836, -0.222, -0.302 and -0.329.
In turn, `CNC(=O)c1ccc(N2C(=S)N(c3ccc(C#N)c(C(F)(F)F)c3)C(=O)C2(C)C)cc1F` [Enzalutamide (MDV3100)] gave an OMR-Perf in test [1] of 0.143. This compound returned a Prob-Test in test [2] of -0.35. The Prob-Naive in test [3] amounted to 0.459. This compound also came in with a Prob-Train in test [4] of -0.362.
For the compound `Nc1ncnc2[nH]cnc12` [Adenine], the OMR-Perf in test [1] is 0.434. Also, in test [2], the Prob-Test is -0.419. For the same compound, the Prob-Naive in test [3] worked out at 0.549. In test [4], this compound had a Prob-Train of -1.1.
`CC[C@H](c1ccc(O)cc1)[C@@H](CC)c1ccc(O)cc1` [Hexestrol] showed an OMR-Perf in test [1] of 0.879. In test [2], this compound registered a Prob-Test of -0.814. For the same compound, in test [3], the Prob-Naive was -0.813. In addition, the Prob-Train in test [4] was -2.17.
